Experimental data taken from PMC6764996.

Sequences of proteins named here, by UniProt entry; tags and fusion partners are left off. Residues count along the entry.
UniProt O75417, 1-894: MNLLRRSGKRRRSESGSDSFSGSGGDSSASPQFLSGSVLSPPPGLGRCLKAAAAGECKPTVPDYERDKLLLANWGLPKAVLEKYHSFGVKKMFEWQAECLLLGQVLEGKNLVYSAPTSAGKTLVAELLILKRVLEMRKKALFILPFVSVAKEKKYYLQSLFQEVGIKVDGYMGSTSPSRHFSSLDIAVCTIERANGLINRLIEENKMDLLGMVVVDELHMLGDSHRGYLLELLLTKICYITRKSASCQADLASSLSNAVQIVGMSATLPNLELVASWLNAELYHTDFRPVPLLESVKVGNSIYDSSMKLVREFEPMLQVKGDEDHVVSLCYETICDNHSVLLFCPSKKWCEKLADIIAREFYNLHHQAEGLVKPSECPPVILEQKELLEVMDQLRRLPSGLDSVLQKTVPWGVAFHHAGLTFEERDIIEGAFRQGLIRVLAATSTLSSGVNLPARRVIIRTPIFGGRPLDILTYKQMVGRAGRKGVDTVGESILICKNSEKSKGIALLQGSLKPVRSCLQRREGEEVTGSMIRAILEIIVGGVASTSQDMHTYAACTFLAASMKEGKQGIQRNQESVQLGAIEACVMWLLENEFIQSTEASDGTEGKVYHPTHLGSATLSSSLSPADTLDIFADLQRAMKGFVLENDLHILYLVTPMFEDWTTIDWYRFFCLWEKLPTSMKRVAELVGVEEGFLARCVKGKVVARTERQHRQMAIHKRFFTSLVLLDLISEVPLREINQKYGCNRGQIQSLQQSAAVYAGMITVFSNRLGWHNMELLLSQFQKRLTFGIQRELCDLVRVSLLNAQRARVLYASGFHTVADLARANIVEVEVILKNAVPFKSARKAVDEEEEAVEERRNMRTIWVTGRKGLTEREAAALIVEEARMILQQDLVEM

Legend:
[1] = molecular target: T1, Polθ-pol (polymerase domain) (human) (UniProt O75417); experiment: fluorescence anisotropy; conditions: 1 mM ATP, 10 mM MgCl2, KD printed only in figure, higher than full-length Polθ, Anisotropy: 25 mM Tris-HCl pH 8.8, 1 mM DTT, 0.01% NP-40, 10 mM MgCl2, 10% glycerol, 0.1 mg/ml BSA, 30 mM NaCl, room temp, at least 30 min, 10 nM FAM-ssDNA, recombinant protein, label: 5' FAM, single-stranded DNA
T1 sequence (looked up, limits assumed): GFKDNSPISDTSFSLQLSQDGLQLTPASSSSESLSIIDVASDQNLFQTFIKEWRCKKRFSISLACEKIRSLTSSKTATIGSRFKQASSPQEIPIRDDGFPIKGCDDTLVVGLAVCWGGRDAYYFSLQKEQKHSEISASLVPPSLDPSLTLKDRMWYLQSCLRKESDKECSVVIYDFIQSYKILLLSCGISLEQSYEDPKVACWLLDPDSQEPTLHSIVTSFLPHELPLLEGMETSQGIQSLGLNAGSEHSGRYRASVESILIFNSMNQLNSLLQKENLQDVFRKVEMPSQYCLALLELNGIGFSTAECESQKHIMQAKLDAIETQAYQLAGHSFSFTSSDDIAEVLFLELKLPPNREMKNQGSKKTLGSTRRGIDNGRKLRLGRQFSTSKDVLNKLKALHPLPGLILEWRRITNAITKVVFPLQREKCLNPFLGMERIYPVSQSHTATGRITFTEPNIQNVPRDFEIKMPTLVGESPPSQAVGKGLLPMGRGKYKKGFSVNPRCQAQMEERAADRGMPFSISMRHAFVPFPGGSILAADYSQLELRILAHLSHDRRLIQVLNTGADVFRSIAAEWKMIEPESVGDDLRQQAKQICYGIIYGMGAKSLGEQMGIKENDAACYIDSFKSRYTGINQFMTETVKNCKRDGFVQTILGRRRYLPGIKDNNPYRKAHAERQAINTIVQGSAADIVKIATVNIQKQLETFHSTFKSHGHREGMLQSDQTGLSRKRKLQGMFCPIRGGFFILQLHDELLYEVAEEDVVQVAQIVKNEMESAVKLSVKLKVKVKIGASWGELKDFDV

[2] = molecular target: Polθ-hel (helicase domain) (human) (UniProt O75417); experiment: fluorescence anisotropy; conditions: 1 mM ATP, Anisotropy: 25 mM Tris-HCl pH 8.8, 1 mM DTT, 0.01% NP-40, 10 mM MgCl2, 10% glycerol, 0.1 mg/ml BSA, 30 mM NaCl, room temp, at least 30 min, 10 nM FAM-ssDNA, recombinant protein, label: 5' FAM, single-stranded DNA

Question: Does “TTTTTTTTTTTTTTTTTTTTTTTTTTTTT [RP316FAM5 (29 nt ssDNA)]” bind [1]?
Answer: binds more weakly

Question: Does “TTTTTTTTTTTTTTTTTTTTTTTTTTTTT [RP316FAM5 (29 nt ssDNA)]” bind ([2]; 10 mM MgCl2, KD printed only in figure, higher than full-length Polθ)?
Answer: binds more weakly

Question: Does “TTTTTTTTTTTTTTTTTTTTTTTTTTTTT [RP316FAM5 (29 nt ssDNA)]” bind ([2]; without ATP, no significant effect of ATP on binding)?
Answer: binds

Construct, isoform or probe ends are uncertain for at least one entry. A weaker result is weaker than the reference pair of the same experiment. For part of these data: Where a protein sequence is shown, tags need not be part of it. For part of these data: At least one verdict was read from the data and is not stated in words by the source.
